Results are given in words; binding and its absence hold for the method and conditions named. In cells and extracts the contact can be indirect. These calls come from enrichment with a bait or labelling near it, and not all partners need be listed. Sequences can lack the tags named with a protein.
T1: PSMA4-GFP (20S proteasomal subunit PSMA4 with GFP fused C-terminally) (D. discoideum) (UniProt P34119)
T1 sequence: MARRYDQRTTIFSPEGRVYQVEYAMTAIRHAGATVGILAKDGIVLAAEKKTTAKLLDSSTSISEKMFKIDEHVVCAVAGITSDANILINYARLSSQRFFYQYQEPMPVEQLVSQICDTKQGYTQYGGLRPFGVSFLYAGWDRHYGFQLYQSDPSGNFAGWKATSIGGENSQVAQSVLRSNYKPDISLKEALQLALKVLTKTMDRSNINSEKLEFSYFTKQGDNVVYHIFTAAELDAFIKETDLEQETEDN

B1: ubiquilin (protein, UniProt Q9NIF3 1-523)
chain: MVKINIKSSTDNKFDVDVELGITVADFKKVIATKCSIPADQQRIIYSGRILKDHQTLDEIKIQDGHTVHLVKGAAPPPPPPVEQQVPTPSNTQPQGIPGVPQNINDMMNNPMIQEMFNSRMMDSLLDNPDIFRDMMMGNPEMREVLNNNPEMAQMLSDPRQLRQSLEMMRNPELMREMMRNADRAMINIENHPEGFNLLRRMYTDIQEPLMNAANQQAASQNQTNSNPIQTNTDANPNSQPLPNPWSTNSSSTSSNPTSSSPSSRPTTGSSTNTGASNPWASMFSGGGGGMGGGTNNTGTNNTGSTNNTGASNPWASMFGGGGGGMGGMGGMEGMLGMDPERVQQLLNNPVAQQMMQRLMSDPAMMQQMITMNPQLRQMMDSNPQLREAMNNPEFLNMMTNPENMNAMMQLQQAMGTLRNNGVFPGGMGGMGGMGGMGGMGGMGGMDFSQFGNMFGGMGGMGGMGNNNSSTTRPPVNQEPPEQRFRLQLEQLEELGFVDRAANISALTSTNGNINLAIDRLLR
B2: Uncharacterized protein Q75JX9 (DDB_G0272214), ubiquitinated at K303 (protein, UniProt Q75JX9 1-630)
chain: MSTINHIESHFQASNQILHSNPSTLTFLENIDRLLNLTNSTYSGIQYTGIRGLNDFSCTSFKMLVIVFSKFRSMKSIFKLVNSPDEKVRSETLSLLWNFSAEESLKIKMFEERILNYIGCLFNYQDENLLLRTSAIIQNLCEFRFEKGAINQNQIKIVSQYKDLLSTIIQRSNHQDVRIKFLSCNTLCNLSMNEENRKLFQHMNIFQDVIGEFNKNYLNDIELPSSFNWVTLQPLLGLISSKDTQVQIFILYCVLSFSLSEKYNRRLWRVFANNHGIESLLKLKKSKIQLVSELSTKICTTLKIGKISYLHRQLNNNNNNKKQKIETLKHDSNECLENDISKLFNNENMFPDLIIKCKDKPNFYLHRSICVSRCPKLKIILDNQSINNDDSGDGRNGLKSSTGFEKEFLNLSGIGEKIISNINYGDRQIVQLELELYETFYEIAKWIYGIHSNSNLSSEVVAKSVMKIAYFLEVQDIIQECEYSLWHHIDLNNCSEILNLSLQCNSKQLENVTVEFILRNLDSIYFGNAKSDFLNHTFNQDLNINKLWYSGGTNNWTKLIKNHIINSYQLQQQKFKIEIHELNNQNNSNKNNNNNNINNNNNNLHFNNNININTNNIQHYSSYNDYDSYR
modifications: ubiquitinated lysine at 303
B3: 60S ribosomal protein L24, ubiquitinated at K70 (protein, UniProt Q54VN6 1-127)
chain: MKTSLCNYSEFKIYPARGMKFVRGDSKVFHFINTKVESLFFRKINPRDIRWSMVYRRIYKNTTTDVSAKKKARKTKKVERNIVGASLEVIQQKRAQKPEVKQAAAEQAKREIKEKKKAAAKKAAPKK
modifications: ubiquitinated lysine at 70
B4: Uncharacterized protein Q55B20 (DDB_G0271470), ubiquitinated at K3 (protein, UniProt Q55B20 1-175)
chain: MAKLESQRLYFRELESNDDENLFELDSDQEVHQYLKSAVTNIDQCRAAIKGIQNQYKLNGIGRMAVIIKETNEFIGWAGLKIENNINGRQSYYDIGYRFIKRYWGKGYATEATQFFINYGFNILKIEKICAFADKDHIASRKVLEKSGLKFIEMFKDDDNNEEAWYEIDNPHSNV
modifications: ubiquitinated lysine at 3
B5: BolA-like protein, ubiquitinated at K19 (protein, UniProt Q86HT3 1-52)
chain: MSGGCGSMYKIEIVSPEFKGKSMINQHRKVNQILKSVIPSLHGLTLVTKSDE
modifications: ubiquitinated lysine at 19
B6: Eukaryotic translation initiation factor 4E, ubiquitinated at K870 (protein, UniProt B0G0Z1 1-977)
chain: MVNYFNLLDESDEEETNTTVKKDLTVETTAPTTTAVIEKENKVNNKVETSTAATSASSSTTGGIYVPPLRTSSEATNKAPPSQHIEIQFDVNKFNSEETLPENWILWYDTKKNSPQEGENNEYLQNVEKIGSFNSLKQFKNMWESLKTPLDVIGNISIFKEGIEPAWEDPKNKDGGKITINYLKDNGDFNFLLNAWFTLFTTIVFSTFENYEQSNGIVLSIRSWGASIHLWNNSSENDKVQSIRDVFQNILFVKYSKFSPHKTALDMNKNKDPNTKQINKNKKRDEHGFTIKPVNTLLSVHPTFSGAYEKQWVLPENNKPDKSLNIINTNTKPKKSSPYTVNTEERKESPDIINDSNNIINNNNNNNNNNSNNNENNNNSDNIENEQSEPIPEIPSGVNAWSTGILLGQPKVEESQKQLDEQPLVVKEDEKENEKEKEKEKEKEKEKEKEKEKIIEKKESKSAYSNAWGNSKIEQPTTTPSNNNNNNTTKSSNTPTPMINTNIEIPTGANAWATGKLLVKQEVVEDKQSLNNVDGAAVAASTTTITPPPVVTTENKEKKGKTEKKEKENKAPTVVITEKKDSSQSQEKPIKRVSSKEVLQEKPIKRVNSKEVLQSQPTESFWEEPTPITVVQQTQVPTKVPKKTIEPTPTPTPTPTPTPTPTPTQTTASTSTPTQVDTFSKVVKKDKSYKQTKTTVSSWGSPTSIADLIASQPEPTTVIVAPVATEVTIPTPTAAPISTNTATTVTTTTTTTSPTNTTAITPTATVVATVESEVKSGVLSIKENKKVETISSVNVQTKVEKDEWISIEKKPKTAKQLVDKKEKDETSPSLLNKGPKDNLLIRNLLVEEPLDYPSPIKPSQPIKNITKEVKKDIQPKENKKENQLKENKKENNNNNNNNNTNNISKENNTKKVSKSSTSNTLKNNNDNIVNSTNKQTNKSTTTTSEKDLSIISSSLIMNLVAVVSVLVLGFILKYLFV
modifications: ubiquitinated lysine at 870
B7: T-complex protein 1 subunit alpha, ubiquitinated at K468 (protein, UniProt Q55BM4 1-548)
chain: MSNKVLMIDGDRISGNEVRAQNVLAVTAIANIVKTSFGPIGLDKMLIDNIGSIVVTNDGATILQKIDIEHPAAKILVQLSELQDQEVGDGTTTVVILAAELLKRANELVARKVHPTVIISGFRLACTEAIKYINETLAVKVETLPKDFIVNIAKTSMSSKTINDDSDFFSKIVIEAITRVKTIDYKGDVKYPINAINILKAHGKSAKESTLVEGYALNCTVASEGMPKRIQGAKIAFLDFNLAKTKMKLGQKVVVTNVNDLEAIRDRENDIVKERISLIIKSGANVVLTTKGIDDLCLKYFVEAGCMAVRRCKKEDLKRIAKSCGGTVLITLANLEGEESFDTTALGIADEVVQDRLADDELIIVKNSNKKSASIILRGANELMLDEMERSIHDSLCIVKRTLESGTIVPGGGAVESALSIYLDNIAATMGSRKQLAISEFAESLLVVPKQLAVNAALDASDLVSKLKAYHHAAQTDPSKKSYAYSGLDLFNNKVRNNLEAGVLEPAIAKIKCIKFATESAITILRIDDKITLNPREQQGGDHEGHGH
modifications: ubiquitinated lysine at 468

Biological target: T1, PSMA4-GFP (20S proteasomal subunit PSMA4 with GFP fused C-terminally) (D. discoideum)
Experiment: affinity purification with mass spectrometry; GFP-trap beads, 2 h at 4 °C, with the soluble supernatant of lysates of AX2 and ATG16- cells expressing RFP-PSMD1 and PSMA4-GFP; cells without PSMA4-GFP as negative controls; three biological replicates; label-free quantification; GlyGly (K) and ubiquitination as variable modifications

Molecule | binding
Uncharacterized protein Q54T94 (DDB_G0281913), ubiquitinated at K146 (from UniProt Q54T94 1-509) | binds
Ubiquitin-60S ribosomal protein L40, ubiquitinated at K48 (from UniProt P14794 1-76) | binds
proteasome activator 28 (PSME3) (from UniProt Q967U1) | binds
ubiquitin system component CUE domain-containing protein | binds
proteasome maturation protein homolog (POMP) (from UniProt Q55G18) | binds
Uncharacterized protein Q54SZ7 (DDB_G0282111), ubiquitinated at K700 (from UniProt Q54SZ7 1-2562) | binds
Uncharacterized protein Q54HN5 (DDB_G0289337), ubiquitinated at K3 (from UniProt Q54HN5 1-1528) | binds
Uncharacterized protein Q54KW5 (DDB_G0287061), ubiquitinated at K927 (from UniProt Q54KW5 1-1836) | binds
60S ribosomal protein L34, ubiquitinated at K106 (from UniProt Q54LV8 1-122) | binds
B1 | binds
B2 | binds
B3 | binds
B4 | binds
B5 | binds
B6 | binds
B7 | binds

— PMC10252828
